Values of other authors, collected in patent US20140163075A1, “MODULATION OF THE UBIQUITIN-PROTEASOME SYSTEM (UPS)” (NETHERLAND CANCER INSTITUTE, priority 2011, published 2014).
At least one compound was matched to its structure with a doubt left.

Experiments:
[1] = test system: proteasome; conditions: literature overview; cited from earlier work
[2] = test system: proteasome; conditions: literature overview; cited from earlier work; remark: listed apart in the source

C=C(C)[C@@H]1CC[C@]2(C(=O)O)CC[C@]3(C)[C@H](CC[C@@H]4[C@@]5(C)CC[C@H](O)C(C)(C)[C@@H]5CC[C@]43C)[C@@H]12 [Betulinic acid]
Results: purified proteasome/lysate [1]: Increases chymotrypsin- | Results: live cells [2]: Increases
